# Experimental data taken from the supplement of paper PMC10849652.
# Protein sequences, listed by entry. Tags and fused reporters are not part of them. Lines headed by an entry give the natural chain unless they say otherwise; changes in a name come on top.
# UniProt O95271: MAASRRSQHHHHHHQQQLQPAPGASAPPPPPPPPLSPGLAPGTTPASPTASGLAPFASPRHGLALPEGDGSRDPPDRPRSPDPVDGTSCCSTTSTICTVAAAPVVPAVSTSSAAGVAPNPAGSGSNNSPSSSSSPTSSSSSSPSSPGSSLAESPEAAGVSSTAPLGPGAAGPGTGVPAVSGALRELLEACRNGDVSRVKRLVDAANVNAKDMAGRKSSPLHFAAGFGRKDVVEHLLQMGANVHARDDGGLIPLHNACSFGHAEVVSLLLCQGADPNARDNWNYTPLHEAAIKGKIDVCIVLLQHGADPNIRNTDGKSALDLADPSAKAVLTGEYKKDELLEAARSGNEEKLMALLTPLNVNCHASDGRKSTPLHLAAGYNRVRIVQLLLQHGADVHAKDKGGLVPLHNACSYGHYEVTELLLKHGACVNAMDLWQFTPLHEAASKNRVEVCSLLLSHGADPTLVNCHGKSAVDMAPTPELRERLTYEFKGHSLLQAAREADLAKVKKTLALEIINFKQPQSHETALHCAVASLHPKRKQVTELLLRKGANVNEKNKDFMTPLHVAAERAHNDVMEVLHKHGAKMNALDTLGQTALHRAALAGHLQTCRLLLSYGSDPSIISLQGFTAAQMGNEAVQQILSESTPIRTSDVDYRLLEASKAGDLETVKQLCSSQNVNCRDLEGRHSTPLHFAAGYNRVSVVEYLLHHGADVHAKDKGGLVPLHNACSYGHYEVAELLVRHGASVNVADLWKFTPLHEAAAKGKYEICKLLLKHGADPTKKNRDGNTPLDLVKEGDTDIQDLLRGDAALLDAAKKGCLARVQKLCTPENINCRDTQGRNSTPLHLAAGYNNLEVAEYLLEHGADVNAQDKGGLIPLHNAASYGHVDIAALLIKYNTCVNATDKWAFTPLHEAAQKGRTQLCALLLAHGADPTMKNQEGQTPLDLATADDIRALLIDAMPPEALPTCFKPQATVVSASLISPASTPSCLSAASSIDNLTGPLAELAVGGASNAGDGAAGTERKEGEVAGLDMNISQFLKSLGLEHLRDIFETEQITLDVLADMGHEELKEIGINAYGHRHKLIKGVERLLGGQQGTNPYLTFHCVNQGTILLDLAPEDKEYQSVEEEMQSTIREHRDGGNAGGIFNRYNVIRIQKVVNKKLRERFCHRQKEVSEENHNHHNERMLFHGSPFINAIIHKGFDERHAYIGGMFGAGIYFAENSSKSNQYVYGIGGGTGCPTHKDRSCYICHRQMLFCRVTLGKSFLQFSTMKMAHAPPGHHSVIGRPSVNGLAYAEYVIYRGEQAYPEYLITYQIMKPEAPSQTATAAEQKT
# UniProt Q9NWD8: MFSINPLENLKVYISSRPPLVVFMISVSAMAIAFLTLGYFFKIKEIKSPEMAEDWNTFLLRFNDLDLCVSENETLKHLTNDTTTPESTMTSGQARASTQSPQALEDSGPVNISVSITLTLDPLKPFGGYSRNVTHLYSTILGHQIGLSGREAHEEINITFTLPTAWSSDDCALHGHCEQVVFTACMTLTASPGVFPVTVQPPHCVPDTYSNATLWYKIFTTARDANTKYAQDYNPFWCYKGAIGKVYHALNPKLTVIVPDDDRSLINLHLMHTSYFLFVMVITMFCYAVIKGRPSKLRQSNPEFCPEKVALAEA
# UniProt P02585, whole entry, looked up: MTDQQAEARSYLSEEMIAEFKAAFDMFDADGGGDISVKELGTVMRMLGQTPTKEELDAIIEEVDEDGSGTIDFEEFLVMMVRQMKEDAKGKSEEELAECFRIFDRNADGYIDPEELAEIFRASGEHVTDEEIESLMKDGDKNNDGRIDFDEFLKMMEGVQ
# UniProt P06753, whole entry, looked up: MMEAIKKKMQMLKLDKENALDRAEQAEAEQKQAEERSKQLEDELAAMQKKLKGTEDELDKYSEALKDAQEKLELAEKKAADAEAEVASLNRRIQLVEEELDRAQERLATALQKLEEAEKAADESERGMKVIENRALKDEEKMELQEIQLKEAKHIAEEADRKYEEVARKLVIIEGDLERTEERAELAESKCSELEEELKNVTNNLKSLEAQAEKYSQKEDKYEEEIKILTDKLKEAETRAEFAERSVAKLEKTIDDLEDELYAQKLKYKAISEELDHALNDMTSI
# UniProt Q9HBL0: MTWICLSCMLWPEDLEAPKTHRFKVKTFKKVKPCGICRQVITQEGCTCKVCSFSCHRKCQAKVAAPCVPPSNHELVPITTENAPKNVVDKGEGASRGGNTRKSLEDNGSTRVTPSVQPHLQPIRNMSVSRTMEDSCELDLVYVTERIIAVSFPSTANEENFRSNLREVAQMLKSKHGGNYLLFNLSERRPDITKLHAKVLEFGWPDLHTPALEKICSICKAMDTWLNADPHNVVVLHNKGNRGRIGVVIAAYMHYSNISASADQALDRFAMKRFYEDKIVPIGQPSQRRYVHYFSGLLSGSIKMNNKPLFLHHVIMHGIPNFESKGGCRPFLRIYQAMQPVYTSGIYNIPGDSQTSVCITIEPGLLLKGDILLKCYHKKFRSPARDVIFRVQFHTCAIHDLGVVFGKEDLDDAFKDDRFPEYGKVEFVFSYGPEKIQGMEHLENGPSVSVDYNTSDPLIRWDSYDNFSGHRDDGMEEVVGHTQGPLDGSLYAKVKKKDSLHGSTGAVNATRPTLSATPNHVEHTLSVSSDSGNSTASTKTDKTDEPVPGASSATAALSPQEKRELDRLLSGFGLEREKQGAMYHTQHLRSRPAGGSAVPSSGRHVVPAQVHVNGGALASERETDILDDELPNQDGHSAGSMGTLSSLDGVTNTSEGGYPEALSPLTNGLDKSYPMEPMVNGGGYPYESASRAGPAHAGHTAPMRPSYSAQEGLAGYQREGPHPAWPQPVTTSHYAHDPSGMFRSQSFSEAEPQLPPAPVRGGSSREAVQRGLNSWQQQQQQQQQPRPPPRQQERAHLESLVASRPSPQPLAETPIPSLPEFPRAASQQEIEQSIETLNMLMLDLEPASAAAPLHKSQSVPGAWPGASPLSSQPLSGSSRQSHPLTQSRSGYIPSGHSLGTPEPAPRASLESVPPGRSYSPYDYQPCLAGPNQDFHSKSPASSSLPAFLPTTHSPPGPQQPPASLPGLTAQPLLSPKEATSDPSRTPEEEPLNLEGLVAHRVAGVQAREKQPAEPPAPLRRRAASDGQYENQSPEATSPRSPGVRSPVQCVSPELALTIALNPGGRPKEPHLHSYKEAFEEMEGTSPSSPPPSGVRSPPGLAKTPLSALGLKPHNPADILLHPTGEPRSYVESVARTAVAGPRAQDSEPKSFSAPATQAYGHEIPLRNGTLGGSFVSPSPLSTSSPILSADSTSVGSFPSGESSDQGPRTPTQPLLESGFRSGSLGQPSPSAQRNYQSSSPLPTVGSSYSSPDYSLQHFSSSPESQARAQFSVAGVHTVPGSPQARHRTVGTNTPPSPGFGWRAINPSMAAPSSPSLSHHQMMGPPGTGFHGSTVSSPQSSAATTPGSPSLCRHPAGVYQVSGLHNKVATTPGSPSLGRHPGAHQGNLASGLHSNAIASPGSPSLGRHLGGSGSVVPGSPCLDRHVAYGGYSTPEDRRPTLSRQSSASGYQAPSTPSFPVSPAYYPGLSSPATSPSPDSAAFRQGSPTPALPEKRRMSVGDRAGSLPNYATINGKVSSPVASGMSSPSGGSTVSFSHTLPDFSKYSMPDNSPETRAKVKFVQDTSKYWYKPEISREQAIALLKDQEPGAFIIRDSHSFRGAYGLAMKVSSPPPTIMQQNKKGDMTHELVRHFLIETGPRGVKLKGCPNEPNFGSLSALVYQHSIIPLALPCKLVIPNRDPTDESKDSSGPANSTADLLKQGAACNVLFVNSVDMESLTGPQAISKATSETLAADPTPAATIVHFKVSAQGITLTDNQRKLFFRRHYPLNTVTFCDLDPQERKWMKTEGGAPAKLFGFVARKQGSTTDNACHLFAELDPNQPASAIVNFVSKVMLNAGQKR
# UniProt Q9H1E5: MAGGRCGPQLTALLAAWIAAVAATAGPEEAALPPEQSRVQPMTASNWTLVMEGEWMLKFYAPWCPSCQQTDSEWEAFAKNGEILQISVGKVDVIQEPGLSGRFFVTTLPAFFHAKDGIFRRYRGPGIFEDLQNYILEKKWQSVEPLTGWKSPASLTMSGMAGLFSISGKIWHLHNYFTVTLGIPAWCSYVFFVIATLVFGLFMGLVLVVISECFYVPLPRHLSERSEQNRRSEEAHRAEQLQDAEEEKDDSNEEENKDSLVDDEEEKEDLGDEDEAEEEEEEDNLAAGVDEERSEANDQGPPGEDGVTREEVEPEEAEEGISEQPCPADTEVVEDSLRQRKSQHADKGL
# UniProt Q96B49: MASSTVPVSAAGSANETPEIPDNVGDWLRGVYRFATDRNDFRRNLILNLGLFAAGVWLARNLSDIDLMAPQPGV
# UniProt Q9NWH2: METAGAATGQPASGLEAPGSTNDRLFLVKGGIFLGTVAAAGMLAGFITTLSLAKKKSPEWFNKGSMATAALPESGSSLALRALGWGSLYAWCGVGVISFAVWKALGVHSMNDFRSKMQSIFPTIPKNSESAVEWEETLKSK
# UniProt Q8N2U0: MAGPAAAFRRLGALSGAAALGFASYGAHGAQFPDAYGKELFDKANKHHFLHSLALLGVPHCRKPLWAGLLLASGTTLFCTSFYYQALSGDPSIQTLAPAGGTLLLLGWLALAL
# UniProt Q0VDI3: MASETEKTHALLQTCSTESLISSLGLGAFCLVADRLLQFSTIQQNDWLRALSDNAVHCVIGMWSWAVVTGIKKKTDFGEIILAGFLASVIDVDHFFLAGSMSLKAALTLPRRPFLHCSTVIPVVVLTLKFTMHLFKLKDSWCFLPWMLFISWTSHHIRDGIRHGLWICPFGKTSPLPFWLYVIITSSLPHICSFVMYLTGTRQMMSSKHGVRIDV
# UniProt Q07912: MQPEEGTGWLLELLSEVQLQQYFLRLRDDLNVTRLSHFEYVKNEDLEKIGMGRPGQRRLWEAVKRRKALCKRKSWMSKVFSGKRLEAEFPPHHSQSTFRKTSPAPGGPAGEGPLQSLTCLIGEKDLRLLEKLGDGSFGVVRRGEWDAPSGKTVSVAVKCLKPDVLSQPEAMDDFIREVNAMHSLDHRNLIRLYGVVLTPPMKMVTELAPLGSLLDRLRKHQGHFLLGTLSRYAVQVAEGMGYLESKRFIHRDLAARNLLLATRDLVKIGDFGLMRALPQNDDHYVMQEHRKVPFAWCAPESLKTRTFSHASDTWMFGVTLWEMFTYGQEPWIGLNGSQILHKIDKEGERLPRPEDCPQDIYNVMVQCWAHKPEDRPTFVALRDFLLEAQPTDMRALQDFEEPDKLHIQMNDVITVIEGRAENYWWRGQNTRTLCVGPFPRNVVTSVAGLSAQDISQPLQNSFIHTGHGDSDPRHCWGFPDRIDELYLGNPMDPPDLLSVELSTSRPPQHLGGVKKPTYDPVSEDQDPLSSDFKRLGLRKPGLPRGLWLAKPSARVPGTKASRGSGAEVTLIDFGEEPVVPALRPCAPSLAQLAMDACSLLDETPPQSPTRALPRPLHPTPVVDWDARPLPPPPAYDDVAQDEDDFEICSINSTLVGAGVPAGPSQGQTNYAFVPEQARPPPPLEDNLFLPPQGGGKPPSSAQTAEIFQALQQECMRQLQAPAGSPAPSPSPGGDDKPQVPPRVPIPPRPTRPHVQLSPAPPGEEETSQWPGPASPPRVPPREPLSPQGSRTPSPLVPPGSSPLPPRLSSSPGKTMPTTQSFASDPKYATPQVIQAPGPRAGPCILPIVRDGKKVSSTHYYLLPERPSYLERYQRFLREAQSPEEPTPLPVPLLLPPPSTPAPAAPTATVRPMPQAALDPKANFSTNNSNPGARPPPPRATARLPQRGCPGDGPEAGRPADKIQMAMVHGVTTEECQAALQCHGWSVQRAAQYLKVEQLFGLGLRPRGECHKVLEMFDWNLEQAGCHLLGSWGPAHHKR
# UniProt Q9BRR3: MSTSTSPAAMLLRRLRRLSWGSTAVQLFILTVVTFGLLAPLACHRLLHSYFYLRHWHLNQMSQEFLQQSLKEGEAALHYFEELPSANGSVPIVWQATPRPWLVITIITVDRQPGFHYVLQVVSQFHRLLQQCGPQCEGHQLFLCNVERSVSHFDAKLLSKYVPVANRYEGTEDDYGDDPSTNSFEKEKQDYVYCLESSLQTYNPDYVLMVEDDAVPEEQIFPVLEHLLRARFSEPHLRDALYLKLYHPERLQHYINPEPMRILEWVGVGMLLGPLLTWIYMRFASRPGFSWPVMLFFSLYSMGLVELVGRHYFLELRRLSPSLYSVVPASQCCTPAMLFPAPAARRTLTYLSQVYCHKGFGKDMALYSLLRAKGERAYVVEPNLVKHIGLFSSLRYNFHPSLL
# UniProt P41273, whole entry, looked up: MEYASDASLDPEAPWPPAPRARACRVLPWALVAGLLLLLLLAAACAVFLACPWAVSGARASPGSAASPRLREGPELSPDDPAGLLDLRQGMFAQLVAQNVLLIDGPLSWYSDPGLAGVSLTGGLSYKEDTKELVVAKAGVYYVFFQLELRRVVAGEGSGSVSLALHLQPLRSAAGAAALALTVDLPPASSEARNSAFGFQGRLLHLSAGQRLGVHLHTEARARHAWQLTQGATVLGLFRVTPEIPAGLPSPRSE
# The other results are listed elsewhere or left out.
# Compound: Cc1cc(Nc2cc(N3CCN(C)CC3)nc(Sc3ccc(NC(=O)C4CC4)cc3)n2)n[nH]1 [tozasertib]
# Assay: log2 fold change, soluble protein after heating vs DMSO (PISA); higher = thermal stabilisation; K562 lysate, 10 uM; active = over 0.2 and 3.5 SD of the protein, either way, in both replicates (recomputed)
# In short: (§1)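 A 30 min treatment with 10 μM compound was applied to crude K562 extract at 1 mg/mL protein in PBS pH 7.4 with 1 mM MgCl2. Heating for 3 min spanned 48°C-58°C, after which aliquots were pooled, adjusted to 0.5% NP-40 at 4°C and spun at 21,000xg for 90 min. TMTpro 16plex LC-MS/MS of the supernatant, with channel sums equalised, gave values recorded as log-two fold change in thermal stability against solvent controls, from duplicates.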
row,Target,log2 fold change
1,TNKS (UniProt O95271),inactive: 0.073
2,TMTC4 isoform 3 (UniProt Q5T4D3),inactive: -0.171
3,TMEM248 (UniProt Q9NWD8),inactive: 0.002
4,TNNC2 (UniProt P02585),inactive: 0.011
5,TPM3 isoform 3 (UniProt P06753),inactive: 0.143
6,TMEM19 (UniProt Q96HH6),inactive: 0.115
7,TPBG (UniProt Q13641),inactive: -0.079
8,TPD52 isoform 3 (UniProt P55327),inactive: 0.179
9,TMEM268 isoform 3 (UniProt Q5VZI3),inactive: -0.075
10,TNS1 (UniProt Q9HBL0),inactive: -0.027
11,TOPAZ1 (UniProt Q8N9V7),inactive: 0.038
12,TMX4 (UniProt Q9H1E5),inactive: -0.052
13,TOMM6 (UniProt Q96B49),inactive: 0.1
14,TMEM242 (UniProt Q9NWH2),inactive: -0.073
15,TMPO isoform 2 (UniProt P42167),inactive: -0.029
16,TMEM256 (UniProt Q8N2U0),inactive: 0.066
17,TPRG1L (UniProt Q5T0D9),inactive: -0.062
18,TMEM50A (UniProt O95807),inactive: 0.237

# Compound: Cc1ccc(-n2nc(C(C)(C)C)cc2NC(=O)Nc2ccc(OCCN3CCOCC3)c3ccccc23)cc1 [doramapimod]
# Assay: as above
# In short: as §1
row,Target,log2 fold change
1,TNKS (UniProt O95271),inactive: -0.013
2,TMEM248 (UniProt Q9NWD8),inactive: 0.068
3,TMEM250 (UniProt H0YL14),inactive: -0.453
4,TNNC2 (UniProt P02585),inactive: -0.038
5,TPM3 isoform 3 (UniProt P06753),inactive: 0.027
6,TMEM273 isoform 2 (UniProt Q5T292),inactive: 0.05
7,TPRN (UniProt Q4KMQ1),inactive: 0.167
8,TMEM19 (UniProt Q96HH6),inactive: 0.021
9,TMEM267 (UniProt Q0VDI3),inactive: 0.144
10,TPBG (UniProt Q13641),inactive: -0.154
11,TMEM268 isoform 3 (UniProt Q5VZI3),inactive: -0.032
12,TNS1 (UniProt Q9HBL0),inactive: -0.123
13,TMX4 (UniProt Q9H1E5),inactive: -0.107
14,TPRA1 (UniProt Q86W33),inactive: 0.016
15,TNK2 isoform 3 (UniProt Q07912),inactive: -0.029
16,TMEM242 (UniProt Q9NWH2),inactive: -0.058
17,TMEM237 isoform 3 (UniProt Q96Q45),inactive: -0.041
18,TMEM35B (UniProt Q8NCS4),inactive: -0.149
19,TPRG1L (UniProt Q5T0D9),inactive: 0.047

# Compound: Cc1ccc(NC(=O)c2ccc(CN3CC[C@H](N(C)C)C3)c(C(F)(F)F)c2)cc1Nc1nccc(-c2cncnc2)n1 [bafetinib]
# Assay: as above
# In short: as §1
row,Target,log2 fold change
1,TMEM246 (UniProt Q9BRR3),inactive: -0.145
2,TNNC1 (UniProt P63316),inactive: 0.267
3,TNFAIP1 (UniProt Q13829),inactive: -0.331
4,TMEM273 isoform 2 (UniProt Q5T292),inactive: -0.01
5,TMEM267 (UniProt Q0VDI3),inactive: 0.019
6,TNS1 (UniProt Q9HBL0),inactive: -0.078
7,TOPAZ1 (UniProt Q8N9V7),inactive: -0.254
8,TMX4 (UniProt Q9H1E5),inactive: -0.044
9,TPD52L2 isoform 3 (UniProt O43399),inactive: -0.102
10,TOMM6 (UniProt Q96B49),inactive: 0.084
11,TNK2 isoform 3 (UniProt Q07912),inactive: -0.38
12,TMEM242 (UniProt Q9NWH2),inactive: 0.084
13,TMPO isoform 2 (UniProt P42167),inactive: -0.026

# Compound: Cc1cccc(CC(=O)N2CCc3c2ccc(-c2cn(C)c4ncnc(N)c24)c3F)n1
# Assay: as above
# In short: as §1
row,Target,log2 fold change
1,TMEM98 (UniProt Q9Y2Y6),inactive: 0.051
2,TNKS (UniProt O95271),inactive: 0.107
3,TMEM248 (UniProt Q9NWD8),inactive: 0.038
4,TNNC2 (UniProt P02585),inactive: 0.018
5,TNNC1 (UniProt P63316),inactive: 0.565
6,TPM3 isoform 3 (UniProt P06753),inactive: 0.202
7,TNFAIP1 (UniProt Q13829),inactive: 0.165
8,TMEM267 (UniProt Q0VDI3),inactive: 0
9,TNFSF9 (UniProt P41273),inactive: 0.032
10,TMEM268 isoform 3 (UniProt Q5VZI3),inactive: -0.188
11,TNS1 (UniProt Q9HBL0),inactive: 0.123
12,TMX4 (UniProt Q9H1E5),inactive: 0.134
13,TPD52L2 isoform 3 (UniProt O43399),inactive: -0.124
14,TPRA1 (UniProt Q86W33),inactive: -0.115
15,TOMM6 (UniProt Q96B49),inactive: -0.116
16,TNK2 isoform 3 (UniProt Q07912),inactive: 0.068
17,TMEM242 (UniProt Q9NWH2),inactive: 0.002
18,TMEM59 (UniProt Q9BXS4),inactive: -0.027
19,TMEM237 isoform 3 (UniProt Q96Q45),inactive: 0.12
20,TPRG1L (UniProt Q5T0D9),inactive: 0.132
